± gives the standard deviation of the averaged measurements. Some of the results follow.
Compound: Nc1nc2c(ncn2[C@@H]2O[C@H](COP(=O)(O)OP(=O)(O)OP(=O)(O)O)[C@@H](O)[C@H]2O)c(=O)[nH]1 [guanosine triphosphate]
Assay: NP40-soluble protein abundance relative to vehicle (solubility fold change) (ratio); higher = more soluble protein in presence of GTP
Method in brief: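 Values are fold changes against the detergent-processed vehicle, based on vsn-normalised intensities. Jurkat crude lysate was treated at eight concentrations from 0.1 to 10 mM (10 min at room temperature, then 3 min at 37 °C), solubilised with 0.8% NP40 and benzonase, ultracentrifuged and analysed by TMT-labelled LC-MS/MS over three independent experiments.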

Sequences of proteins named here, by UniProt entry; tags and fusion partners are left off. A change or cut given only in a name is not applied to a line headed by its entry.
UniProt O15269: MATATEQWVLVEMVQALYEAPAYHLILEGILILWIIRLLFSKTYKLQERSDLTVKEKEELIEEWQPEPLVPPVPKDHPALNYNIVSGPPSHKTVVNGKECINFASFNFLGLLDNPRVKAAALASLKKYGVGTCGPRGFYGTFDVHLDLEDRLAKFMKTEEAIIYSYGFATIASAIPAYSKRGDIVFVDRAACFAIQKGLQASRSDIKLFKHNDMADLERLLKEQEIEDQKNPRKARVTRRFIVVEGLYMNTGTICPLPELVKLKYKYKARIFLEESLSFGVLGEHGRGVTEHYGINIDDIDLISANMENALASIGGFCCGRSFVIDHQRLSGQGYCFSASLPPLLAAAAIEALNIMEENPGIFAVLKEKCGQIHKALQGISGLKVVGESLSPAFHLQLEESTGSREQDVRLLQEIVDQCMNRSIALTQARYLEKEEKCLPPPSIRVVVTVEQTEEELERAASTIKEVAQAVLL
UniProt O00330, whole entry: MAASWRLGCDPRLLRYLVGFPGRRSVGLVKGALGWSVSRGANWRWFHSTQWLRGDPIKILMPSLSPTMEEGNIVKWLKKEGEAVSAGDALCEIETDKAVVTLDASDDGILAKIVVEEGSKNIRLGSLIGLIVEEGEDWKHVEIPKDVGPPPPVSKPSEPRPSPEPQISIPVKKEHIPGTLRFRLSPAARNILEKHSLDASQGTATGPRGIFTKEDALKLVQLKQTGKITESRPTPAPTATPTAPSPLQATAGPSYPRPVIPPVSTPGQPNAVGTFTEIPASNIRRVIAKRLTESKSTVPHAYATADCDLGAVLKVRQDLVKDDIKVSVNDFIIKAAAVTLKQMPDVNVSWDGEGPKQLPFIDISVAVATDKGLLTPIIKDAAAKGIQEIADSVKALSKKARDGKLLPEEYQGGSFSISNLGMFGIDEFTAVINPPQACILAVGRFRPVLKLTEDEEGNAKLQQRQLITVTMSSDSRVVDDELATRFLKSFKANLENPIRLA
UniProt O14933: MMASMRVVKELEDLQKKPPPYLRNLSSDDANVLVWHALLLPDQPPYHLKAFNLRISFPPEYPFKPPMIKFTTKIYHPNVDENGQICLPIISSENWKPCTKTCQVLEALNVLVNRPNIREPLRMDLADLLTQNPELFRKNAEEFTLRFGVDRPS
UniProt O43592: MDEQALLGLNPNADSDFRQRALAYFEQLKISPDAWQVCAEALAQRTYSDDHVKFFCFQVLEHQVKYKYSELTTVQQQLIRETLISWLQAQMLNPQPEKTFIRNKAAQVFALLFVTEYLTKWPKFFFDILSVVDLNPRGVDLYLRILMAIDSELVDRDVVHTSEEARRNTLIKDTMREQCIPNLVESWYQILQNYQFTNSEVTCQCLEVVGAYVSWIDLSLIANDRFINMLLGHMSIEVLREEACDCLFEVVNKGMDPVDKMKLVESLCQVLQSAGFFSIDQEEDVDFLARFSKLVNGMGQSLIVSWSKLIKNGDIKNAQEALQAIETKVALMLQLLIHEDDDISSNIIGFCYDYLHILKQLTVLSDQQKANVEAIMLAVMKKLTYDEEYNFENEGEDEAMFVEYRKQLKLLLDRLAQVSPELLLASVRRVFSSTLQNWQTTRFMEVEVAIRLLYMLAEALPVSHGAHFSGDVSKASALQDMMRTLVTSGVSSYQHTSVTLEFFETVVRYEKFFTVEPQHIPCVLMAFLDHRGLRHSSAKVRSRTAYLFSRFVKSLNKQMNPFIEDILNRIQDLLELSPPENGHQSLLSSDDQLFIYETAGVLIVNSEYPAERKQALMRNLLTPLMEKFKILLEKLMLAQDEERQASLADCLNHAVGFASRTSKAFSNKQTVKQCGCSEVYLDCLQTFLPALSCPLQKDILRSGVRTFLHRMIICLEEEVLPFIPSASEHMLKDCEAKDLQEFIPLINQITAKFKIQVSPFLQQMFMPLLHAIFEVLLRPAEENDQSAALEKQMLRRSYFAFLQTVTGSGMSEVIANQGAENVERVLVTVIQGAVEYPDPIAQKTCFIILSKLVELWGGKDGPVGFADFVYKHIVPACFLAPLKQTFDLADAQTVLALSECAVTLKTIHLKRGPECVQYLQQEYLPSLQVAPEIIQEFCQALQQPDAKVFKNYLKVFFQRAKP
UniProt O60502: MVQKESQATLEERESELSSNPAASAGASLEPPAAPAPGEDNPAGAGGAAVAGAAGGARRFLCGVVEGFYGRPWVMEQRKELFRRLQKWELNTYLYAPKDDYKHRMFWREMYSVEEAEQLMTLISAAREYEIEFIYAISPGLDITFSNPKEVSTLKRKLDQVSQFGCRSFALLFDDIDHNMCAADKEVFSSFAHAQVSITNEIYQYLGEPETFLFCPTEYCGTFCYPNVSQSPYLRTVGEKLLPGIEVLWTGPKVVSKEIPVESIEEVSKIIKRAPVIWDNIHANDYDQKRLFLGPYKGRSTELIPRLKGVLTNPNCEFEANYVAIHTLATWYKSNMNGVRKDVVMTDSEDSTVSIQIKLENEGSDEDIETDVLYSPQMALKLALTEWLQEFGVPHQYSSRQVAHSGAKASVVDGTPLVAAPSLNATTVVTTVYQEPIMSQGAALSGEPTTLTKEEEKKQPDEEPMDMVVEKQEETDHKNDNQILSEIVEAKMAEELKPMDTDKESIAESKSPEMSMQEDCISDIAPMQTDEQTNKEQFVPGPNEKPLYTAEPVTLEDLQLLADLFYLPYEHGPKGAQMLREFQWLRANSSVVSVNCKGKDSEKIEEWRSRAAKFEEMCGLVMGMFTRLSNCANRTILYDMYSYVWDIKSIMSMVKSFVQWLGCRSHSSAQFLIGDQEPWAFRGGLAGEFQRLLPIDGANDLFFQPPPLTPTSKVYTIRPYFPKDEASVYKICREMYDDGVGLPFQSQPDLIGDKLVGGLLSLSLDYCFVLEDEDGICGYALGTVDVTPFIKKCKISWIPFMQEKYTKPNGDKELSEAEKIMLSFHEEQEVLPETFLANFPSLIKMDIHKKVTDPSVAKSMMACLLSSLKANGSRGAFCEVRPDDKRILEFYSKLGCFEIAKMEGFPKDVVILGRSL
UniProt O00422: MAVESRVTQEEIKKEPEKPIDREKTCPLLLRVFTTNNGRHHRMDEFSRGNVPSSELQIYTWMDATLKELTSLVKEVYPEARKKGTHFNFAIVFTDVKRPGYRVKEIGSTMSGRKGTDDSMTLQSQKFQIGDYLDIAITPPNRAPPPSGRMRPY
UniProt O00139: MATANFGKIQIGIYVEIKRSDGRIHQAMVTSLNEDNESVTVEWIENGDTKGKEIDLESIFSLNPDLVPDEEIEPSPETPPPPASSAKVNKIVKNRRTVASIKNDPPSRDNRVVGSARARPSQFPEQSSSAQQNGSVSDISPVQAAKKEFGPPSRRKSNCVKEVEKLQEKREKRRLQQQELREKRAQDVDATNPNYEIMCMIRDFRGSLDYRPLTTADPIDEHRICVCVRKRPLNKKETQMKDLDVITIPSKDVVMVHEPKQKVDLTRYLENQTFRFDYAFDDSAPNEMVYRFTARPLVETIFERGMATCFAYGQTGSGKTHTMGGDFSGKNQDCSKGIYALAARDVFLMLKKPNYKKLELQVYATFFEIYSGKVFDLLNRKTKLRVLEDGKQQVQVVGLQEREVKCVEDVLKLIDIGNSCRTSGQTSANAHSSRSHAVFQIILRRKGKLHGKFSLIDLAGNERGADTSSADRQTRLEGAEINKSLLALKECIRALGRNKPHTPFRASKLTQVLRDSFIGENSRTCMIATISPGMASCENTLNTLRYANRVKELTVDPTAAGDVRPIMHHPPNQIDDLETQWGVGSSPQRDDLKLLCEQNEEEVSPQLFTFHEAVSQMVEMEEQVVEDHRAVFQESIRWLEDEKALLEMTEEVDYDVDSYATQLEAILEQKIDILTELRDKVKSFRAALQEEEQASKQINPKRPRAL
UniProt O14776: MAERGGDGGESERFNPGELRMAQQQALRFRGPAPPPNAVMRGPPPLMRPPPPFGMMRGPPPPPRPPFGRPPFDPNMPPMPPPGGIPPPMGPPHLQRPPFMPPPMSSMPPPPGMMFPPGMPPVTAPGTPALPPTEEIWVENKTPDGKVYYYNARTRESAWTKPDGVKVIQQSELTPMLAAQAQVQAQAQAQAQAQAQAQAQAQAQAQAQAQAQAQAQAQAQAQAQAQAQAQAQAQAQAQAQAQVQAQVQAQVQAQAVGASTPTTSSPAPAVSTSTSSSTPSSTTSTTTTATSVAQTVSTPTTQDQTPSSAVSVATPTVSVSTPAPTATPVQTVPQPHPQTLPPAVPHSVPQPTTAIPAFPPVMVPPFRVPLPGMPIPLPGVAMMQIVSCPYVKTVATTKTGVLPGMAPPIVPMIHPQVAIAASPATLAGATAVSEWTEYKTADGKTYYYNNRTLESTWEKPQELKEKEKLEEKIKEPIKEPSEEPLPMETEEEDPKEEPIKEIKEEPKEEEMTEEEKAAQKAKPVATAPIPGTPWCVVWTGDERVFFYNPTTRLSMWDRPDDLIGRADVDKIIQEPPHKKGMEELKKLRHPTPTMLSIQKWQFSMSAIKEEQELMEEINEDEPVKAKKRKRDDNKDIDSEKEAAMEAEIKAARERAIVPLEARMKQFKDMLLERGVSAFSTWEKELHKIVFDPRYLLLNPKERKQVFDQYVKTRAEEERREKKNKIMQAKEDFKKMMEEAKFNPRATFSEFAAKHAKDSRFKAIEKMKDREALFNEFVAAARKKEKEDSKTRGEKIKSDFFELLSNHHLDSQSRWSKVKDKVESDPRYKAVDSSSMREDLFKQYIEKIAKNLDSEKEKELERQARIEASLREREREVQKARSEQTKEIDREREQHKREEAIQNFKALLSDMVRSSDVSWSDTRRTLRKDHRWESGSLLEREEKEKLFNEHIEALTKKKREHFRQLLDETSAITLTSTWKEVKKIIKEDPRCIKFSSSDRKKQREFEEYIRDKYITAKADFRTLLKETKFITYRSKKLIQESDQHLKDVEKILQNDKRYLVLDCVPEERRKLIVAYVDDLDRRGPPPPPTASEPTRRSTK
UniProt O43707, whole entry: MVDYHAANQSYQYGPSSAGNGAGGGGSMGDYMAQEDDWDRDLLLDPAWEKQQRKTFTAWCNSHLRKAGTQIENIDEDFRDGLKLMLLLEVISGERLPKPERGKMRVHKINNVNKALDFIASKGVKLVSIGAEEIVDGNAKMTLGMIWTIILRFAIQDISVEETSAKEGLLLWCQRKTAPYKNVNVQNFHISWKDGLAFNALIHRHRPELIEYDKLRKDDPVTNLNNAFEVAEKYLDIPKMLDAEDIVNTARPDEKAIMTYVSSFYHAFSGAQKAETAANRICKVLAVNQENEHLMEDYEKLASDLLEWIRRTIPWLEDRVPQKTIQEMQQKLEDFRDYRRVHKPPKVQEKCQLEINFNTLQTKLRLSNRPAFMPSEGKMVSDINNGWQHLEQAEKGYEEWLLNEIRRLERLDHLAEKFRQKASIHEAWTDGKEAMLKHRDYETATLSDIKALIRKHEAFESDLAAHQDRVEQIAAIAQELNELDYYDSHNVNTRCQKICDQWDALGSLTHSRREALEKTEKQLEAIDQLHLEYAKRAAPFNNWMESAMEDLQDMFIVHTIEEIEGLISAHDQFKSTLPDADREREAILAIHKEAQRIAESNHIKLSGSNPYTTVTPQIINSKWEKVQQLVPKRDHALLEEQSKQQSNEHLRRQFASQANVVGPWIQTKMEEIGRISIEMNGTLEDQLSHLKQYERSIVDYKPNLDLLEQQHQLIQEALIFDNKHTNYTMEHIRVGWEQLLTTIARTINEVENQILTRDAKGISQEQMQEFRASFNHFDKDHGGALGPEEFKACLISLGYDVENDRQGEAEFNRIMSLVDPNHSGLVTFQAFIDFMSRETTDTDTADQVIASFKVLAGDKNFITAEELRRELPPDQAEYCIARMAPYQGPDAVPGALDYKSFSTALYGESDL
UniProt O43583: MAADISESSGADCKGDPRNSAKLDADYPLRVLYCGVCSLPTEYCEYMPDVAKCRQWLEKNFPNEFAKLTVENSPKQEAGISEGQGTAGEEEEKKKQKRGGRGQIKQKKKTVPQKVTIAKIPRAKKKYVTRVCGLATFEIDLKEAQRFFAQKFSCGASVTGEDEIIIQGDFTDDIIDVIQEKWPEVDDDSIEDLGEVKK

Target	NP40-soluble protein abundance (concentration: 0.1mM)	NP40-soluble protein abundance (concentration: 0.5mM)	NP40-soluble protein abundance (concentration: 1mM)	NP40-soluble protein abundance (concentration: 2mM)	NP40-soluble protein abundance (concentration: 4mM)	NP40-soluble protein abundance (concentration: 6mM)	NP40-soluble protein abundance (concentration: 8mM)	NP40-soluble protein abundance (concentration: 10mM)
UniProt O14777 and related entries	0.966 ± 0.017	0.95 ± 0.025	0.994 ± 0.02	0.954 ± 0.025	0.966 ± 0.045	0.955 ± 0.043	0.958 ± 0.037	0.971 ± 0.042
SPTLC1 (UniProt O15269)	1.05 ± 0.016	0.983 ± 0.023	0.9992 ± 0.009	0.959 ± 0.027	1.025 ± 0.0098	0.934 ± 0.02	0.963 ± 0.026	0.901 ± 0.023
UniProt O00330 and related entries	1.1 ± 0.079	1.2 ± 0.15	1.34 ± 0.29	1.47 ± 0.34	1.54 ± 0.46	1.58 ± 0.46	1.63 ± 0.54	1.49 ± 0.51
M0R0P8 and related entries (UniProt Q13459)	1.05 ± 0.03	1.01 ± 0.048	1.04 ± 0.055	1.02 ± 0.032	1.01 ± 0.028	0.991 ± 0.089	1.03 ± 0.014	0.973 ± 0.035
ARPC5 (UniProt O15511)	0.864 ± 0.14	0.85 ± 0.08	1.09 ± 0.22	1.07 ± 0.13	1.03 ± 0.14	1.05 ± 0.096	0.999 ± 0.14	1.17 ± 0.24
UBE2L6 (UniProt O14933)	0.877 ± 0.06	0.875 ± 0.048	0.924 ± 0.03	0.956 ± 0.047	0.862 ± 0.078	0.912 ± 0.097	0.835 ± 0.11	0.953 ± 0.054
PAPSS1 (UniProt O43252)	1.04 ± 0.034	1.04 ± 0.059	0.982 ± 0.021	0.961 ± 0.046	0.963 ± 0.062	0.938 ± 0.034	0.946 ± 0.038	0.899 ± 0.054
UniProt O43422	0.913 ± 0.15	0.925 ± 0.18	0.825 ± 0.1	0.842 ± 0.11	0.842 ± 0.1	0.877 ± 0.1	0.843 ± 0.12	0.799 ± 0.1
UniProt O15020 and related entries	0.991 ± 0.063	0.991 ± 0.079	1.03 ± 0.076	1 ± 0.13	1 ± 0.082	1.02 ± 0.13	1.06 ± 0.043	1.06 ± 0.076
UniProt O14773 and related entries	0.972 ± 0.072	0.91 ± 0.053	0.96 ± 0.034	0.973 ± 0.05	1.03 ± 0.014	1.01 ± 0.065	0.995 ± 0.094	1.02 ± 0.029
XPOT (UniProt O43592)	1 ± 0.043	1.01 ± 0.071	0.93 ± 0.054	0.938 ± 0.1	0.946 ± 0.053	0.94 ± 0.069	0.875 ± 0.039	0.871 ± 0.045
M0QYH2 and related entries (UniProt Q96T60)	1.02 ± 0.03	1.08 ± 0.05	1.1 ± 0.034	1.13 ± 0.08	1.18 ± 0.056	1.23 ± 0.06	1.25 ± 0.1	1.26 ± 0.047
UniProt O60502 and related entries	0.991 ± 0.014	1 ± 0.029	0.9666 ± 0.0021	0.968 ± 0.016	0.953 ± 0.013	0.9433 ± 0.009	0.919 ± 0.023	0.919 ± 0.011
PHGDH (UniProt O43175)	0.956 ± 0.028	0.947 ± 0.014	0.948 ± 0.026	0.895 ± 0.025	0.904 ± 0.035	0.891 ± 0.022	0.907 ± 0.014	0.879 ± 0.026
BACH1 (UniProt O14867)	1.03 ± 0.046	1.01 ± 0.031	0.981 ± 0.018	0.966 ± 0.025	0.98 ± 0.022	0.985 ± 0.037	0.997 ± 0.075	0.999 ± 0.065
UniProt O00422 and related entries	1.05 ± 0.085	1.16 ± 0.14	1.27 ± 0.24	1.27 ± 0.16	1.2 ± 0.35	1.1 ± 0.31	1.13 ± 0.36	1.16 ± 0.39
UniProt O00139 and related entries	0.996 ± 0.017	0.972 ± 0.025	0.908 ± 0.032	0.924 ± 0.019	0.929 ± 0.03	0.942 ± 0.031	0.966 ± 0.018	0.944 ± 0.043
MED14 (UniProt O60244)	1.03 ± 0.019	1.12 ± 0.025	1.15 ± 0.22	1.18 ± 0.23	1.2 ± 0.28	1.16 ± 0.17	1.2 ± 0.27	1.19 ± 0.18
KPNA3 (UniProt O00505)	0.964 ± 0.042	0.971 ± 0.06	1.01 ± 0.046	1.02 ± 0.052	1.04 ± 0.052	1.01 ± 0.068	1.05 ± 0.046	1.004 ± 0.0059
CCDC22 (UniProt O60826)	0.976 ± 0.018	0.972 ± 0.013	0.99 ± 0.049	1.01 ± 0.063	1.02 ± 0.028	1.01 ± 0.073	1.02 ± 0.052	0.99 ± 0.052
UniProt O43491-4|E9PHY5 and related entries	0.951 ± 0.068	0.947 ± 0.066	0.916 ± 0.058	0.853 ± 0.073	0.843 ± 0.08	0.875 ± 0.069	0.897 ± 0.066	0.87 ± 0.061
UniProt O60869 and related entries	0.96 ± 0.05	0.959 ± 0.081	1 ± 0.064	0.969 ± 0.089	0.999 ± 0.15	1.06 ± 0.17	1.2 ± 0.15	1.3 ± 0.17
UniProt O14776 and related entries	0.97 ± 0.042	0.962 ± 0.056	0.979 ± 0.047	0.953 ± 0.083	0.989 ± 0.079	1.01 ± 0.084	1.05 ± 0.05	1.04 ± 0.071
UniProt O14841 and related entries	1.04 ± 0.019	1.02 ± 0.066	1.06 ± 0.11	0.927 ± 0.048	1.04 ± 0.11	0.912 ± 0.13	1.03 ± 0.0033	0.936 ± 0.086
ACTN4 (UniProt O43707)	0.926 ± 0.041	0.962 ± 0.061	0.923 ± 0.076	0.875 ± 0.085	0.92 ± 0.11	1.01 ± 0.13	1.03 ± 0.13	1.03 ± 0.15
UniProt O00471 and related entries	1.03 ± 0.033	1.01 ± 0.057	1.02 ± 0.039	1.02 ± 0.059	1.05 ± 0.062	0.996 ± 0.044	1.03 ± 0.062	1.01 ± 0.05
UQCRQ (UniProt O14949)	0.965 ± 0.068	0.883 ± 0.034	1.06 ± 0.084	1.04 ± 0.094	1.07 ± 0.085	1.01 ± 0.076	0.911 ± 0.05	1.04 ± 0.14
POLR1C (UniProt O15160)	1 ± 0.056	1.03 ± 0.035	0.971 ± 0.028	1.01 ± 0.024	1.07 ± 0.081	1.04 ± 0.083	1.04 ± 0.058	1.02 ± 0.03
DENR (UniProt O43583)	0.841 ± 0.046	0.805 ± 0.045	0.91 ± 0.046	0.862 ± 0.062	0.861 ± 0.054	0.861 ± 0.082	0.818 ± 0.1	0.863 ± 0.042
UniProt O60566 and related entries	0.992 ± 0.049	0.994 ± 0.011	0.944 ± 0.026	0.946 ± 0.02	0.945 ± 0.032	0.941 ± 0.049	0.945 ± 0.028	0.912 ± 0.015

A portion from the list above, for reference:
Target	NP40-soluble protein abundance (concentration: 0.1mM)	NP40-soluble protein abundance (concentration: 0.5mM)	NP40-soluble protein abundance (concentration: 1mM)	NP40-soluble protein abundance (concentration: 2mM)	NP40-soluble protein abundance (concentration: 4mM)	NP40-soluble protein abundance (concentration: 6mM)	NP40-soluble protein abundance (concentration: 8mM)	NP40-soluble protein abundance (concentration: 10mM)
ARPC5 (UniProt O15511)	0.864 ± 0.14	0.85 ± 0.08	1.09 ± 0.22	1.07 ± 0.13	1.03 ± 0.14	1.05 ± 0.096	0.999 ± 0.14	1.17 ± 0.24
UBE2L6 (UniProt O14933)	0.877 ± 0.06	0.875 ± 0.048	0.924 ± 0.03	0.956 ± 0.047	0.862 ± 0.078	0.912 ± 0.097	0.835 ± 0.11	0.953 ± 0.054
PAPSS1 (UniProt O43252)	1.04 ± 0.034	1.04 ± 0.059	0.982 ± 0.021	0.961 ± 0.046	0.963 ± 0.062	0.938 ± 0.034	0.946 ± 0.038	0.899 ± 0.054
UniProt O43422	0.913 ± 0.15	0.925 ± 0.18	0.825 ± 0.1	0.842 ± 0.11	0.842 ± 0.1	0.877 ± 0.1	0.843 ± 0.12	0.799 ± 0.1
UniProt O15020 and related entries	0.991 ± 0.063	0.991 ± 0.079	1.03 ± 0.076	1 ± 0.13	1 ± 0.082	1.02 ± 0.13	1.06 ± 0.043	1.06 ± 0.076

Source: the supplement of paper PMC6411743
